At least one compound was matched to its structure with a doubt left.
System: SH-SY5Y cells
Assay: Protection against retinoic acid toxicity in SH-SY5Y cells, graded under the microscope
Assay type: cell-based
Settings: retinoic acid 20 μM
Description: Retinoic Acid was left on the plate for the duration of the experiment or until washed off. Colostrinin was added to the plate at the indicated doses. When added on Day 1, it was present during the entire experiment. When added on Day 5, it was incubated on the plate for 30 minutes at 37° C. and then removed. The wells were washed twice with PBS before adding β-Amyloid. Cultures were then observed under the microscope and graded.

**Q.** Which “differentiation induced by retinoic acid” value does the source give for CC1=C(/C=C/C(C)=C/C=C/C(C)=C/C(=O)O)C(C)(C)CCC1 [Retinoic Acid] here?
**A.** The value was “induced differentiation in these cells by day two”.
